# Experimental data from doi:10.1101/2025.02.13.638043.
# Protein sequences, listed by entry. Tags and fused reporters are not part of them. Residues count along the entry.
# UniProt Q14416, residues 19-872: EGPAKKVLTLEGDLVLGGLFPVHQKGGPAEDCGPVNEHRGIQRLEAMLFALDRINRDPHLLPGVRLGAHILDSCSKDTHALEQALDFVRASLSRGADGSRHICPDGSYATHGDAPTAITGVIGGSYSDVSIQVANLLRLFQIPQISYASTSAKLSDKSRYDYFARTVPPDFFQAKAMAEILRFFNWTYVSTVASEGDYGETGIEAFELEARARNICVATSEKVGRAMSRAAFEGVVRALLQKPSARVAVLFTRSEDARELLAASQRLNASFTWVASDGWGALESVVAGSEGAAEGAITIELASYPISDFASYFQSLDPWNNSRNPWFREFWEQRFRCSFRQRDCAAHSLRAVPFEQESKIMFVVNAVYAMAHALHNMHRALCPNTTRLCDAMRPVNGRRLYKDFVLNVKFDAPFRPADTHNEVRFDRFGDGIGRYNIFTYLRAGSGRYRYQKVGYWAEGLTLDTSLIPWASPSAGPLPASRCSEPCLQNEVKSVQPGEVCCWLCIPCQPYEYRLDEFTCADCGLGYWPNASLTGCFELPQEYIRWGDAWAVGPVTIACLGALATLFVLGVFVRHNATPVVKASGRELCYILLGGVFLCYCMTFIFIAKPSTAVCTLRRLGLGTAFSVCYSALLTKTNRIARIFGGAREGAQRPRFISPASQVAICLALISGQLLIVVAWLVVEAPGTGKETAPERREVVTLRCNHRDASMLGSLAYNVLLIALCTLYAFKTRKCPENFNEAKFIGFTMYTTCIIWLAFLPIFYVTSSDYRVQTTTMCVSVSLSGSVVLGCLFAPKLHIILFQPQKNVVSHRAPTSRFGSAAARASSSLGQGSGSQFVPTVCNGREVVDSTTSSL
# UniProt Q14832, residues 23-879: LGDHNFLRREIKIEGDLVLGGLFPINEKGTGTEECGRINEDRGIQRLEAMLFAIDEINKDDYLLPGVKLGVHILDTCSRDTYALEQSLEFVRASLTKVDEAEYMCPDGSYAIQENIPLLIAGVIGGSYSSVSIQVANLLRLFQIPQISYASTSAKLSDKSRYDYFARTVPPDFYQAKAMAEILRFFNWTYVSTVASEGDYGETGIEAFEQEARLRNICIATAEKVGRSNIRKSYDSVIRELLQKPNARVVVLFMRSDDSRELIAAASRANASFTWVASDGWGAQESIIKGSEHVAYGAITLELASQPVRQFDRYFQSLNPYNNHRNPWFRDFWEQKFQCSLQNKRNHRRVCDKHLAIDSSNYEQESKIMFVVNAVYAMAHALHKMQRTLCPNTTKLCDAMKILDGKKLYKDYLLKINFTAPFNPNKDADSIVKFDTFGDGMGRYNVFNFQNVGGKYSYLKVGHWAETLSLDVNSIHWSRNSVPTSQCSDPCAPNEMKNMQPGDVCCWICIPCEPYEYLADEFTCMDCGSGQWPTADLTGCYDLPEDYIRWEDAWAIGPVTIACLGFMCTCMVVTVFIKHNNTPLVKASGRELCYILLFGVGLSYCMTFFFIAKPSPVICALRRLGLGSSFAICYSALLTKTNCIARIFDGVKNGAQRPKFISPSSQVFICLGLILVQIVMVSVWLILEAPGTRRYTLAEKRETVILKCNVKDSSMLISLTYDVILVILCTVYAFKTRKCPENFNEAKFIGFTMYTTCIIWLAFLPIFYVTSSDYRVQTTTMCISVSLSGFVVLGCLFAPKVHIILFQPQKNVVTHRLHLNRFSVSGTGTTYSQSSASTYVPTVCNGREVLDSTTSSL
# UniProt Q14833, residues 33-912: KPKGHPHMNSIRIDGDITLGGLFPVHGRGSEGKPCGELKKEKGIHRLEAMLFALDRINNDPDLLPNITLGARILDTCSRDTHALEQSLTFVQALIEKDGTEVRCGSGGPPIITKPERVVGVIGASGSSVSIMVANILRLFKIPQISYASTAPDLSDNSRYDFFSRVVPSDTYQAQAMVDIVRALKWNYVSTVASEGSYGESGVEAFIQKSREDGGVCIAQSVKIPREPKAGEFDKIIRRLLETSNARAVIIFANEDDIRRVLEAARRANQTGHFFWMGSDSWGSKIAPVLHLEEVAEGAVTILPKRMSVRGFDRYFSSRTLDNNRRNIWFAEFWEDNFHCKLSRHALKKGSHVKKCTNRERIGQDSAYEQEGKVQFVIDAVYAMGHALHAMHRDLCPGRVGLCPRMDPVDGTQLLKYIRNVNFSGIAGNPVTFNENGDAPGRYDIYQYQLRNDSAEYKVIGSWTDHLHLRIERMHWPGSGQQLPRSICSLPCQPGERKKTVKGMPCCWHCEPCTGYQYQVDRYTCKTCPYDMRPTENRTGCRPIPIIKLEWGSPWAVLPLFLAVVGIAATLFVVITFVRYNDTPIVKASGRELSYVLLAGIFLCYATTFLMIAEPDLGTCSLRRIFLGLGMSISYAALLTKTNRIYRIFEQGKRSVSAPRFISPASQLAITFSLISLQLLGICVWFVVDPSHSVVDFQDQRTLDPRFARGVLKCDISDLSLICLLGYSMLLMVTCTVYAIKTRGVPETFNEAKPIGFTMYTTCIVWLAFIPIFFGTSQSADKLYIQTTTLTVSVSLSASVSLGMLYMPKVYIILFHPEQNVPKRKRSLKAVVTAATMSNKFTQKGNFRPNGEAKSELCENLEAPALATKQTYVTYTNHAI
# UniProt P32121: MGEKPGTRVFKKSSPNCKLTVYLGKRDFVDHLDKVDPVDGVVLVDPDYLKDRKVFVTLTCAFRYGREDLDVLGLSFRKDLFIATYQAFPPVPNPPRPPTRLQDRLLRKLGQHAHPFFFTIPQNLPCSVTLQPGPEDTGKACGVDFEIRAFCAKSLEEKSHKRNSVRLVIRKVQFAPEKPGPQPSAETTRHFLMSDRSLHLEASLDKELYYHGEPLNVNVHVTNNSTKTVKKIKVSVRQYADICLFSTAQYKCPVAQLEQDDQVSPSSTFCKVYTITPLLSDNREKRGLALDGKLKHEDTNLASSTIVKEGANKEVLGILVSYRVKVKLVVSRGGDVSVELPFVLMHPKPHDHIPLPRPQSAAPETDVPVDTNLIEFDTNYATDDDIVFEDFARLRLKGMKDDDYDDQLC
# UniProt O00222, residues 34-908: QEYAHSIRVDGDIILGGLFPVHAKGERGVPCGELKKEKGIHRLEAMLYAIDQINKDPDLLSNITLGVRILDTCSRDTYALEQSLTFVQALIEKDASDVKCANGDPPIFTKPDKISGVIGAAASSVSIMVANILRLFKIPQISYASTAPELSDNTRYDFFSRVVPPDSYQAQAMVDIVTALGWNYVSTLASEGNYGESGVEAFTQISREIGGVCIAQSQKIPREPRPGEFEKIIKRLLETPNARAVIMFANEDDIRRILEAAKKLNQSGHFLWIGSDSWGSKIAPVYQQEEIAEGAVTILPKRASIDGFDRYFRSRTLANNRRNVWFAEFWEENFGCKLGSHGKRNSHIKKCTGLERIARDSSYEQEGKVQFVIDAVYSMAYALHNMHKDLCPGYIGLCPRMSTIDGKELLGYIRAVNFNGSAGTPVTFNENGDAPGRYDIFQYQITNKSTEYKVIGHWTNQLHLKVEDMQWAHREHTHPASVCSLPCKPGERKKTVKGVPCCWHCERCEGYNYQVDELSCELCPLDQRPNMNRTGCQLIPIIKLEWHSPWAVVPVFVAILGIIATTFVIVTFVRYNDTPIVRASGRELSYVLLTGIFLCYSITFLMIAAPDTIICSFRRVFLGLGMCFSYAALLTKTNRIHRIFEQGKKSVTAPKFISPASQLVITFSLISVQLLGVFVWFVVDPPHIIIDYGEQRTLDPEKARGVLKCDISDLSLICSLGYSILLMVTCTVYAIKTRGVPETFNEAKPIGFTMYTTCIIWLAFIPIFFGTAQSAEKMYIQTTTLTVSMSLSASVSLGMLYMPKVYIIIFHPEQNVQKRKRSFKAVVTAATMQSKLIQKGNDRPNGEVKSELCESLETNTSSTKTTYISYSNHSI
# UniProt P49407: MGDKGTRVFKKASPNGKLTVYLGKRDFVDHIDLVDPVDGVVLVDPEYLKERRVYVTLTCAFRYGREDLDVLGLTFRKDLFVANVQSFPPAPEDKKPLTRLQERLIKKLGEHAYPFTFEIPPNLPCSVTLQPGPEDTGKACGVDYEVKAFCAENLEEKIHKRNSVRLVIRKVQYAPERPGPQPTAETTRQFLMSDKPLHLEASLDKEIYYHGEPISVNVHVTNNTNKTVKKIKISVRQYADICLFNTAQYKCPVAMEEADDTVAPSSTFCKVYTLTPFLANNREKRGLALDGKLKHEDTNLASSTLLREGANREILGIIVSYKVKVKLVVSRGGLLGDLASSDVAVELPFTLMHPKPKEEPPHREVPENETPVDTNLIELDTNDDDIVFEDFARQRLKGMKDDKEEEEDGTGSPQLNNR
# Results are given in words; binding and its absence hold for the method and conditions named. Binding seen in cells or lysates may run through a third protein. Some binding calls cover weakened binding; strength is not graded here.
# How the values were obtained:
# Experiment in all cases: FRET or BRET
# [1] = molecular target: mGlu2-Venus (metabotropic glutamate receptor 2 with Venus at the C-terminal domain) (human) (UniProt Q14416)
# [2] = molecular target: mGlu3-Venus (metabotropic glutamate receptor 3 with Venus at the C-terminal domain) (human) (UniProt Q14832)
# [3] = molecular target: mGlu4-Venus (metabotropic glutamate receptor 4 with Venus at the C-terminal domain) (human) (UniProt Q14833)
# [4] = molecular target: SNAP-mGlu3 (metabotropic glutamate receptor 3, N-terminal FLAG-SNAP tag) (human) (UniProt Q14832)
binding [1],binding [2],binding [3],Substance,binding [4]
no binding,binds,no binding,β-arrestin 2 tagged with RLuc8 at the C-terminal domain (from UniProt P32121 1-409),
,,,"CLIP-mGlu8 (metabotropic glutamate receptor 8, N-terminal FLAG-CLIP tag) (from UniProt O00222 34-908)",binds
no binding,binds,no binding,β-arrestin 1 tagged with RLuc8 at the C-terminal domain (from UniProt P49407 1-418),
